These are yes or no findings as the source states them, for the method shown. Some binding calls cover weakened binding; strength is not graded here.
Experiments:
[1] = target: chloroplast ATP synthase (cATPase) subunit III, membrane ring (III)14 (Spinacia oleracea) (UniProt P69447); assay: cross-linking; comparative: dephosphorylated cATPase (calf intestinal alkaline phosphatase, 37 °C) cross-linked with 2.5 mM deuterated BS3, untreated cATPase with non-deuterated BS3, pooled; areas of extracted ion chromatograms of heavy and light cross-links compared; both purified
[2] = target: chloroplast ATP synthase (cATPase) subunit III, membrane ring (III)14 (Spinacia oleracea) (UniProt P69447); assay: cross-linking; untreated cATPase, 1:1 mixture of 2.5 mM BS3-d4 and 2.5 mM BS3-d0, 1 h at room temperature; NuPAGE gel, in-gel digestion, LC-MS/MS, MassMatrix search, manual validation; both purified

Amino acid sequences for entries named in this document (tags omitted).
UniProt P69447: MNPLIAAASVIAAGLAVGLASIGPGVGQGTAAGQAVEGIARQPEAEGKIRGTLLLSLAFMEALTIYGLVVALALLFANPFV

Row | binding [1] | binding [2] | Binder
1 | binds |  | cATPase subunit ε, dephosphorylated enzyme (protein, UniProt P00833 1-134) MTLNLCVLTPNRSIWNSEVKEIILSTNSGQIGVLPNHAPTATAVDIGILRIRLNDQWLTLALMGGFARIGNNEITILVNDAERGSDIDPQEAQQTLEIAEANLRKAEGKRQKIEANLALRRARTRVEASNTISS
2 |  | binds | chloroplast ATP synthase (cATPase) subunit ε, untreated enzyme (protein, UniProt P00833 1-134, phosphosite identified at S13) MTLNLCVLTPNRSIWNSEVKEIILSTNSGQIGVLPNHAPTATAVDIGILRIRLNDQWLTLALMGGFARIGNNEITILVNDAERGSDIDPQEAQQTLEIAEANLRKAEGKRQKIEANLALRRARTRVEASNTISS
